Results are given in words; binding and its absence hold for the method and conditions named. For some assays here: In cells and extracts the contact can be indirect. Some binding calls cover weakened binding; strength is not graded here.
T1: CD86-Ig (UniProt P42082)
T1 sequence: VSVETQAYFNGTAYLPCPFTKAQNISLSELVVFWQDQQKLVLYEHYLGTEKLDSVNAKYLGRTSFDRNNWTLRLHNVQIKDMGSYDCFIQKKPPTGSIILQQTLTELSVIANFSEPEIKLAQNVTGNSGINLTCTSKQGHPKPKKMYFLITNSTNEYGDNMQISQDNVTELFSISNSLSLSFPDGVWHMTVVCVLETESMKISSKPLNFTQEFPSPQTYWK

Sequences of proteins named here, by UniProt entry; tags and fusion partners are left off. Residues count along the entry.
UniProt Q9JHJ8, residues 47-277: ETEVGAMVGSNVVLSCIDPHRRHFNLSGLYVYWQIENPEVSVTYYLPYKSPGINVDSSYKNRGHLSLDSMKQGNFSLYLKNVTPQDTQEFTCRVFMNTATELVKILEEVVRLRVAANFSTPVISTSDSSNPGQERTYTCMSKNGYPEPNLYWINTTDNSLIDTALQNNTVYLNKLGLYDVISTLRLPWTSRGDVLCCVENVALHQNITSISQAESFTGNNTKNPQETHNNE
UniProt P31041, residues 20-218: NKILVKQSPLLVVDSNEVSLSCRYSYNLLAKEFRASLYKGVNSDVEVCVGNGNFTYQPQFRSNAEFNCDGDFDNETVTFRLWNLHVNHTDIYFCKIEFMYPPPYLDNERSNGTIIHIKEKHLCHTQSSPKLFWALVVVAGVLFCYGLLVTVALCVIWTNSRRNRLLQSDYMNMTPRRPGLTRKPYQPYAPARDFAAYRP

B1: ICOS (receptor, UniProt Q9WVS0 21-200)
chain: EINGSADHRMFSFHNGGVQISCKYPETVQQLKMRLFREREVLCELTKTKGSGNAVSIKNPMLCLYHLSNNSVSFFLNNPDSSQGSYYFCSLSIFDPPPFQERNLSGGYLHIYESQLCCQLKLWLPVGCAAFVVVLLFGCILIIWFSKKKYGSSVHDPNSEYMFMAAVNTNKKSRLAGVTS

Key:
CD86-Ig [1] = molecular target: T1, CD86-Ig; experiment: cell isolation assay
CD86-Ig [2] = molecular target: T1, CD86-Ig; experiment: co-IP
ICOSLG-Ig [3] = molecular target: ICOSLG-Ig (UniProt Q9JHJ8); experiment: co-IP
ICOSLG-Ig [4] = molecular target: ICOSLG-Ig (UniProt Q9JHJ8); experiment: cell isolation assay

Molecule	binding (CD86-Ig [1])	binding (CD86-Ig [2])	binding (ICOSLG-Ig [3])	binding (ICOSLG-Ig [4])
CD28 (from UniProt P31041 20-218) (receptor)	binds	binds	no binding	–
B1	–	–	binds	binds weakly

Source: paper doi:10.1101/2022.09.21.508809
